Results reported in patent US20090227619A1, “Harmine derivatives, intermediates used in their preparations, preparation processes and use therefo” (priority 2003, published 2009).
For some assays here: At least one structure is not confirmed: it was looked up by name or label, or the drawing left a doubt. Some of these results come from one statement about several compounds together.

Experiments:
Lewis lung cancer = Lewis lung cancer in mice; for Inhibition rate of tumors: intraperitoneal once a day for 10 days, summary of table 43; for Inhibition rate (strongest anti-tumor effect): highest rate;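 on all read-outs here: mice implanted subcutaneously in the axilla with Lewis lung tumor cells, treated starting the following day, killed roughly three weeks after implantation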
S180 sarcoma = S180 sarcoma in mice, intraperitoneal once a day for 10 days; summary of table 43
CT-DNA = experiment: DNA thermal denaturation, determination of ΔTm; assay type: binding; settings: 20 uM compound, Tm of CT-DNA alone 61° C.
Experimental: Experiments were carried out in PE buffer (1 mM Na2HPO4, 0.1 mM EDTA, pH 7.6) in a thermostatically controlled cell hold, and the quartz cuvette (1 cm path length) was heated by circulating water at a heating rate of 0.5° C./min from 25 to 95° C. Amsacrine and Doxorubicin Hydrochloride were used as standards. In all cases, the concentration of CT-DNA was 15 ug/ml. The ‘melting’ temperature Tm was taken as the mid-point of the hyperchromic transition.
ΔTm=Tm^drug-DNA complex−Tm^DNA alone
The ΔTm of each compound was calculated, Experiments were repeated three times, and an average value was calculated.

Structure (SMILES)	Inhibition rate of tumors (Lewis lung cancer)	Inhibition rate (strongest anti-tumor effect) (Lewis lung cancer)	Inhibition rate of tumors (S180 sarcoma)	ΔTm (CT-DNA) [°C]
O=C(O)c1cc2c3ccccc3n(Cc3ccccc3)c2cn1 [Compound 37, 9-benzyl-β-carboline-3-carboxylic acid]	greater than 40%	–	–	–
CCCCn1c2ccccc2c2cc(C(=O)O)ncc21 [Compound 36, 9-butyl-β-carboline-3-carboxylic acid]	greater than 40%	up to 46.9%	greater than 40%	–
COc1ccc2c3ccnc(C)c3n(CCCc3ccccc3)c2c1 [Compound 8, 9-phenylpropyl-7-methoxy-1-methyl-β-carboline]	–	–	–	7.9
CCCCn1c2cc(OC)ccc2c2ccnc(C)c21 [Compound 4, 7-methoxyl-9-n-butyl-1-methyl-β-carboline]	greater than 40%	–	greater than 40%	–
CCOC(=O)c1cc2c([nH]c3ccccc32)c(C)n1 [Compound 11, ethyl 1-methyl-β-carboline-3-carboxylate]	greater than 40%	–	greater than 40%	–
CCOC(=O)c1cc2c3ccccc3n(Cc3ccccc3)c2cn1 [Compound 33, ethyl 9-benzyl-β-carboline-3-carboxylate]	greater than 40%	–	greater than 40%	–
COc1ccc2c3ccnc(C)c3n(Cc3ccccc3)c2c1 [Compound 6, 9-benzyl-7-methoxy-1-methyl-β-carboline]	greater than 40%	up to 46.9%	greater than 40%	–
